Source: US20190262469A1 (priority 2015, published 2019)
For some assays here: At least one structure is not confirmed: it was looked up by name or label, or the drawing left a doubt. Some of these results come from one statement about several compounds together.

Assays:
[1] = tested on: E. coli ER2420 with pACYC177 or pACYC184; format: cell-based
E. coli ER2420/pACYC177 = format: cell-based; conditions: test array/20-well test strips (FIG. 34, 35), listed as AMX

For `NC[C@H]1O[C@H](O[C@H]2[C@H](O)[C@@H](O[C@H]3O[C@H](CO)[C@@H](O)[C@H](N)[C@H]3O)[C@H](N)C[C@@H]2N)[C@H](O)[C@@H](O)[C@@H]1O` [kanamycin], the “killing action detected by delta-Ct for PMA treatment” value [1] was “in the susceptible strain (pACYC184) and not in the resistant strain (pACYC177)”.
For `CC1(C)S[C@@H]2[C@H](NC(=O)[C@H](N)c3ccc(O)cc3)C(=O)N2[C@H]1C(=O)O` [amoxicillin], the MIC (E. coli ER2420/pACYC177) was > 256 µg/mL.
